{"source": "patent EP1196188B1", "about": "“VGF SELECTIVE MONOCLONAL ANTIBODIES AND THEIR USE FOR TREATING VGF-RELATED DISORDERS” (Amgen, Inc., priority 1999, dated 2001)", "assay": "Biological activity of VGF polypeptide in knockout mice (body weight)", "format": "in vivo", "conditions": "VGF gene knockout mice; intraperitoneal injection of 2 mg twice daily for five days; three of the four treated mice", "note": "At least one peptide structure holds a part that was inferred or is arguable (an end, a ring closure or a residue). Where a SMILES comes first, the peptide text is derived from it."}
{"molecule": "C[C@H](N)C(=O)N[C@@H](CCC(N)=O)C(=O)N[C@@H](CCC(=O)O)C(=O)N[C@@H](CCC(=O)O)C(=O)N[C@@H](C)C(=O)N[C@@H](CC(=O)O)C(=O)N[C@@H](C)C(=O)N[C@@H](CCC(=O)O)C(=O)N[C@@H](CCC(=O)O)C(=O)O", "note": "[VGF-1a] (H-AQEEADAEE-OH)", "values": [{"measurement": "gained percent in bodyweight", "result": "10-15%"}]}
